No constants are given. Whether binding was seen depends on the method and setting. Sequences can lack the tags named with a protein.
Assays:
[1] = target: T1, Methanocaldococcus jannaschii RecJ1 (MJ0977) (Methanocaldococcus jannaschii) (UniProt Q58387); assay: pull-down; purified 6×His-RecJ mixed with His-tag-free GINS in a molecular ratio of 1:2, 37 °C for 30 min; Ni-NTA resin, washed, eluted with 200 mM imidazole; eluates on 15% SDS-PAGE; both purified
T1 sequence: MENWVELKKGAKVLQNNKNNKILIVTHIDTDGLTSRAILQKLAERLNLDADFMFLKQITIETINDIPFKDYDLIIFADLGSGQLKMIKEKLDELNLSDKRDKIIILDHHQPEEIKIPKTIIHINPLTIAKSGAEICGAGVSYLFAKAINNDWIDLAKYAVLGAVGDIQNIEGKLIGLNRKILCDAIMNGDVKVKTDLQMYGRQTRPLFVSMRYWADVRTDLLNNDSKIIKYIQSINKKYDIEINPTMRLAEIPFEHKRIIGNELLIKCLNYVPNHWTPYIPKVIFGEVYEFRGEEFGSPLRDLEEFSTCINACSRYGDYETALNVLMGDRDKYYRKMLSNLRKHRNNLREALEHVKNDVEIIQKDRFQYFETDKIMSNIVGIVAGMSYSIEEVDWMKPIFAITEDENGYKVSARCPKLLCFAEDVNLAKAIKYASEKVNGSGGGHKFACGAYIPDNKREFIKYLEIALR

[2] = target: T2, Methanocaldococcus jannaschii RecJ2 (MJ0831) (Methanocaldococcus jannaschii) (UniProt Q58241); assay: as above
T2 sequence: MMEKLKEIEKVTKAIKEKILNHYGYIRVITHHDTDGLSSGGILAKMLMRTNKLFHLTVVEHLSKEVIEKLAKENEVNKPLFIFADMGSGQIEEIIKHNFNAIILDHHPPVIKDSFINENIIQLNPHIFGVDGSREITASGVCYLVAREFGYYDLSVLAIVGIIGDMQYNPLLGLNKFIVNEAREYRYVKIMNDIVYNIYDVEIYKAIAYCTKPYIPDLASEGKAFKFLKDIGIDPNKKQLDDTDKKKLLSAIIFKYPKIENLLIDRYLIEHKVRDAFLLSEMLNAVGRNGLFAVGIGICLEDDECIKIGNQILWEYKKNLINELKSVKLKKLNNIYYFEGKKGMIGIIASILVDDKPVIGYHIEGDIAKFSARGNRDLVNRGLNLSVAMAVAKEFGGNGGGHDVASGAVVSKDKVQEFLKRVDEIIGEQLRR

binding [1]: no binding
binding [2]: no binding
B1: Methanocaldococcus jannaschii GINS (MJ0248), 6×His tag and sumo domain removed (protein)
chain: MRVFIIIIYFRCFSKDHKPYFVITMYESLKNYFFEEIKNDKLLKLPDDFYDDIREYIKNIKDDIELERVKYYFKELRKLRIYKALYLDNERENLLPEELNIIHAIENIVVELKIEETPEFKKPTEIDTPKPIYTINDIDVVKVDKNFPPFTDGTFIYDLNKNDVLSLDRKISHILEKHRIISRIGESYENPEES
